# From the supplement of paper PMC12889115
# The list shows a part of the results. Values are raw readings; no control value is given beside them.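 In the initial screen, polymyxin B was used at a concentration that permeabilizes Salmonella's outer membrane but not its inner membrane. Maximum growth was set by DMSO wells with or without polymyxin B. Since plates varied, data were ranked per plate, and compounds giving the lowest OD600 advanced as hits.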
# System: Salmonella enterica serovar Typhimurium SL1344
# Experiment: bacterial growth OD600 after 18 h with compound and polymyxin B; higher = more bacterial growth (less inhibition)
# Settings: 50 µM, Mueller-Hinton broth
SMILES,bacterial growth OD600 (polymyxin B 1 µg/mL),bacterial growth OD600 (polymyxin B 0.75 µg/mL)
CC(=O)CCC(=O)N1CCCC(CNC(=O)c2ccc(-c3ccccc3)cc2)C1 (configuration not stated),1.01,–
Cn1ccnc1CN1CCCC(CCc2cccc(F)c2)C1 (configuration not stated),–,0.854
O=C(CC(c1ccccc1)c1ccc(Cl)cc1)NCCc1cnccn1 (configuration not stated),0.913,–
O=C(c1ccccc1OC1CCN(Cc2ccco2)CC1)N1CCCC1,–,0.729
Cc1cc(Cl)ccc1C(=O)C1CCCN(Cc2cccn2-c2nccs2)C1 (configuration not stated),0.777,–
CCCC1(C2CCN(C(=O)c3sc(C)nc3C)CC2)NC(=O)N(CCc2ccccn2)C1=O (configuration not stated),–,0.725
O=C(NCc1ccccc1)c1coc(CN2CCN(c3ncccn3)CC2)n1,0.933,–
Cc1cc(C)n(Cc2cc(C(=O)NCCCN3CCCC3=O)n[nH]2)n1,1.19,–
CC1(C)Cc2nc(N3CCOCC3)ncc2C(NC(=O)c2cccs2)C1 (configuration not stated),–,0.805
C[C@@H]1C[C@@H](C(=O)NCC2(N(C)Cc3ccccc3)Cc3ccccc3C2)NC(=S)N1,0.854,–
CN1CCCCC1C(=O)NCc1cccnc1Oc1cccc(C(F)(F)F)c1 (configuration not stated),0.946,–
CCOC(=O)C1(CC2CCCCO2)CCN(C(=O)Nc2ccccc2)CC1 (configuration not stated),–,0.734
O=C(c1cc[nH]n1)N1CCC(C2CCN(CCc3ccccc3)CC2)C1 (configuration not stated),1.03,–
CC(C)(C)C(=O)Nc1ccnn1C1CCN(C(=O)c2cc(F)ccc2F)CC1,0.869,–
O=C(Nc1cnn(CC(=O)N2CCC(Oc3ccccc3F)CC2)c1)c1ccc2c(c1)OCO2,–,0.762
COc1ccc2nc(N3CCC(NCC(C)C)CC3)nc(C)c2c1,–,0.829

# Fetched one by one from the entries so far:
SMILES,bacterial growth OD600 (polymyxin B 1 µg/mL),bacterial growth OD600 (polymyxin B 0.75 µg/mL)
CCOC(=O)C1(CC2CCCCO2)CCN(C(=O)Nc2ccccc2)CC1 (configuration not stated),–,0.734
O=C(CC(c1ccccc1)c1ccc(Cl)cc1)NCCc1cnccn1 (configuration not stated),0.913,–

# The list continues:

SMILES,bacterial growth OD600 (polymyxin B 1 µg/mL),bacterial growth OD600 (polymyxin B 0.75 µg/mL)
CC(C)c1ccc(NC2CCCN(C(=O)CN3C(=O)c4ccccc4C3=O)C2)cc1 (configuration not stated),0.286,–
CCOc1ccccc1-c1nc(CN(C)C(C)c2cccc(OC)c2)c(C)o1 (configuration not stated),0.799,–
COc1cccc(-c2ccc(NC(=O)C3CCCN3C3CCSCC3)cc2)c1 (configuration not stated),–,0.515
CCc1noc(CN(CC)c2ccc(-c3nc(C(C)C)no3)cn2)n1,–,0.653
O[C@@H]1CN(Cc2ccc(OC(F)F)cc2)CC[C@H]1N1CCN(CCc2ccccc2)CC1,1.18,–
CCCC(=O)N1CCCCC1C(=O)Nc1cccc(-c2nnc(C)s2)c1 (configuration not stated),1.07,–
O=C(C1CC1)N1CCC(Oc2ccc(C(=O)N3C[C@@H]4CCC[C@H]3C4)cc2)CC1,0.853,–
COc1ccc(OC2CCN(C(C)=O)CC2)c(C(=O)NCc2cccs2)c1,1.05,–
COCc1ccc(C(=O)Nc2ccc(-c3nc(CNC(=O)c4cnccn4)c(C)o3)cc2)o1,–,0.735
Cc1cc(C)n(Cc2ccc(C(=O)N3CCCC(c4nc(C)ncc4-c4ccc(F)cc4)C3)cc2)n1 (configuration not stated),–,0.716
COc1cccc(N2C(=O)CN(C(=O)CN3C(=O)c4ccccc4C3=O)CC2C)c1 (configuration not stated),–,0.82
COc1ccc(CN2CCC(CO)(Cc3ccc(Cl)cc3)CC2)c(OC)c1C,–,0.728
COCCN1CC(C(=O)NCCc2nc(-c3ccccc3)no2)CCC1=O (configuration not stated),0.948,–
COc1ccc(Cl)cc1NC(=O)CCC1CCCN(C(=O)CCc2c(C)noc2C)C1 (configuration not stated),0.966,–
COc1ccc(N2CCN(C3CCCN(C(=O)c4ccccc4SC)C3)CC2)cc1 (configuration not stated),0.875,–
CCC1CN(CC(=O)NC2CCc3ccccc32)Cc2cc(OC)ccc2O1 (configuration not stated),–,0.661
